Data as given in PubChem BioAssay AID504804 (Drosophila RNAi Screening Center, 2011).

Aim: 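dsRNAs that improve Kc cell survival under doxorubicin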 (primary screen)
Cell system: Drosophila Kc cells
Reagents: long dsRNA against Drosophila genes, 0.5 µg dsRNA per well
Time to read-out: 96 h (48 h knock-down, then 48 h drug)
Conditions: doxorubicin 5 µg/ml for 48 h, added 48 h after dsRNA
Measured: 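Luminescent ATP counts per replicate, not normalised, reflecting viable cells after 48 h dsRNA knock-down followed by 48 h of 5 µg/ml doxorubicin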
Scale: raw ATP luminescence: higher = more viable cells, protection from doxorubicin
Hit rule: 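Active when both duplicate wells lie at least 2 SD above the plate mean and protection is confirmed by rescreening and independent dsRNAs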
The deposit covers about 19,000 reagents; below is an unselected part of those that have a named target and a result. Of all reagents, 47 (0.25%) were called active. 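Signals are raw, not normalised; exact z-scores behind calls not deposited; actives needed confirmation, so some wells reaching 2 SD are inactive.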

| gene knocked down | amplicon | raw ATP luminescence, replicate 1 | raw ATP luminescence, replicate 2 | outcome |
| --- | --- | --- | --- | --- |
| CG34183 | DRSC01099 | 3.46e5 | 3.37e5 | inactive |
| CG11584 | DRSC19408 | 3.15e5 | 2.52e5 | inactive |
| Hml (Hemolectin) | DRSC11183 | 66413 | 73933 | inactive |
| CG42539 (retired record) | DRSC13691 | 2.03e5 | 2.26e5 | inactive |
| CG7142 | DRSC16204 | 70580 | 86610 | inactive |
| M1BP (Motif 1 Binding Protein) | DRSC16566 | 40500 | 17093 | inactive |
| Cyp318a1 (Cytochrome P450 318a1) | DRSC19784 | 3.71e5 | 3.28e5 | inactive |
| CG10469 | DRSC09729 | 77627 | 87253 | inactive |
| N (Notch) | DRSC18685 | 47580 | 49240 | inactive |
| RpL37-2 (Ribosomal protein L37-2) | DRSC04584 | 45450 | 48710 | inactive |
| spz4 (spatzle 4) | DRSC02410 | 36217 | 55033 | inactive |
| Tsp3A (Tetraspanin 3A) | DRSC18656 | 52140 | 63230 | inactive |
| Chd1 (Chromodomain-helicase-DNA-binding protein 1) | DRSC00745 | 1.09e5 | 62897 | inactive |
| RpS10b (Ribosomal protein S10b) | DRSC19561 | 3.65e5 | 3.91e5 | inactive |

An excerpt from above, showing only “raw ATP luminescence, replicate 1”:
Cyp318a1 (Cytochrome P450 318a1) [DRSC19784]: 3.71e5
CG10469 [DRSC09729]: 77627
N (Notch) [DRSC18685]: 47580
RpL37-2 (Ribosomal protein L37-2) [DRSC04584]: 45450
spz4 (spatzle 4) [DRSC02410]: 36217
Tsp3A (Tetraspanin 3A) [DRSC18656]: 52140

Next entries:
| gene knocked down | amplicon | raw ATP luminescence, replicate 1 | raw ATP luminescence, replicate 2 | outcome |
| --- | --- | --- | --- | --- |
| CG7208 | DRSC16212 | 56090 | 65450 | inactive |
| T48 (Transcript 48) | DRSC16878 | 66530 | 47520 | inactive |
| Hibch (3-hydroxyisobutyryl-CoA hydrolase) | DRSC15705 | 64970 | 23190 | inactive |
| TBC1D5 (TBC1 domain family member 5) | DRSC16421 | 34010 | 23270 | inactive |
| Jhbp15 (Juvenile hormone binding protein 15) | DRSC15217 | 77290 | 64680 | inactive |
| CG11279 | DRSC09837 | 82157 | 1.10e5 | inactive |
| CG30340 | DRSC05167 | 93413 | 85307 | inactive |
| CG31064 | DRSC14756 | 55480 | 66640 | inactive |
| CG31064 | DRSC15941 | 56590 | 31730 | inactive |
| CG31064 | DRSC15942 | 51370 | 34910 | inactive |
| CG31064 | DRSC15943 | 36520 | 30010 | inactive |
| Est-6 (Esterase 6) | DRSC11162 | 79527 | 68027 | inactive |
| Vha16-3 (Vacuolar H[+] ATPase 16kD subunit 3) | DRSC10872 | 75563 | 56190 | inactive |
| CG30345 | DRSC05144 | 76673 | 70750 | inactive |
| CG30403 | DRSC03889 | 1.53e5 | 1.81e5 | inactive |
| CG42514 | DRSC10428 | 24197 | 27413 | inactive |
| Ubr3 (Ubr3 ubiquitin ligase) | DRSC17997 | 30710 | 38620 | inactive |
| SCCRO (Squamous cell carcinoma-related oncogene) | DRSC10844 | 44977 | 30927 | inactive |
| CG4041 | DRSC18339 | 48670 | 49500 | inactive |
| CG15739 | DRSC19705 | 3.18e5 | 2.98e5 | inactive |
